Laboratory results published in PMC5640428.
These are yes or no findings as the source states them, for the method shown. Binding seen in cells or lysates may run through a third protein. A yes stands for co-enrichment or nearness to the bait. Other partners may have been found.

B1: NARS (protein, UniProt Q8BP47 1-559)
chain: MSSEVIRGTAEMVLAELYVSDREGNDATGDGTKEKPFKTGLKALMTVGKEPFPTIYVDSQKENERWDVISKSQMKNIKKMWHREQMKNDSREKKEAEDNLRREKNLEEAKKIIIKNDPSLPEPACVKISALEGYRGQRVKVFGWVHRLRRQGKNLMFLVLRDGTGYLQCVLSDDLCQCYNGVVLSTESSVAVYGTLNLTPKGKQAPGGHELSCDFWELVGLAPAGGADNLINEESDVDVQLNNRHMMIRGENMSKILKARSMITRCFRDHFFDRGYCEVTTPTLVQTQVEGGATLFKLDYFGEEAFLTQSSQLYLETCLPALGDVFCIAQSYRAEQSRTRRHLAEFTHVEAECPFLTFEDLLNRLEDLVCDVVDRVLKSPVASIVYELNPNFKPPKRPFRRMNYSDAIEWLKEHDVKKEDGTFYEFGDDIPEAPERLMTDTINEPILLCRFPVEIKSFYMQRCPEDPRLTESVDVLMPNVGEIVGGSMRSWDSEEILEGYKREGIDPAPYYWYTDQRKYGTCPHGGYGLGLERFLSWILNRYHIRDVCLYPRFLQRCRP
B2: PRRT2 (protein, UniProt E9PUL5 1-346)
chain: MAASSSQVSEMKGVEDSSKTQTEGPRHSEEGLGPVQVVAEIPDQPEALQPGPGITAAPVDSGPKAELAPETTETPVETPETVQATDLSLNPEEGSKASPSPSPSEARQEPASKPDVNRETAAEEGSEPQSTAPPEPTSEPAFQINTQSDPQPTSQPPPKPPLQAEPPTQEDPTTEVLTESTGEKQENGAVVPLQAGDGEEGPAPQPHSPPSTKTPPANGAPPRVLQKLVEEDRIGRAHGGHPGSPRGSLSRHPSSQLAGPGVEGGEGTQKPRDYIILAILSCFCPMWPVNIVAFAYAVMSRNSLQQGDVDGAQRLGRVAKLLSIVALVGGVLIIIASCVINLGVYK
B3: SFPQ (protein, UniProt Q8VIJ6 1-699)
chain: MSRDRFRSRGGGGGGFHRRGGGGGRGGLHDFRSPPPGMGLNQNRGPMGPGPGGPKPPLPPPPPHQQQQQPPPQQPPPQQPPPHQQPPPHQPPHQQPPPPPQESKPVVPQGPGSAPGVSSAPPPAVSAPPANPPTTGAPPGPGPTPTPPPAVPSTAPGPPPPSTPSSGVSTTPPQTGGPPPPPAGGAGPGPKPGPGPGGPKGGKMPGGPKPGGGPGMGAPGGHPKPPHRGGGEPRGGRQHHAPYHQQHHQGPPPGGPGPRTEEKISDSEGFKANLSLLRRPGEKTYTQRCRLFVGNLPADITEDEFKRLFAKYGEPGEVFINKGKGFGFIKLESRALAEIAKAELDDTPMRGRQLRVRFATHAAALSVRNLSPYVSNELLEEAFSQFGPIERAVVIVDDRGRSTGKGIVEFASKPAARKAFERCSEGVFLLTTTPRPVIVEPLEQLDDEDGLPEKLAQKNPMYQKERETPPRFAQHGTFEYEYSQRWKSLDEMEKQQREQVEKNMKDAKDKLESEMEDAYHEHQANLLRQDLMRRQEELRRMEELHSQEMQKRKEMQLRQEEERRRREEEMMIRQREMEEQMRRQREESYSRMGYMDPRERDMRMGGGGTMNMGDPYGSGGQKFPPLGGGGGIGYEANPGVPPATMSGSMMGSDMRTERFGQGGAGPVGGQGPRGMGPGTPAGYGRGREEYEGPNKKPRF
B4: RAB11FIP5 (protein, UniProt Q8R361 1-645)
chain: MALVRDPEPAAGSSRWLPTHVQVTVLRASGLRGKSSGAGSTSDAYTVIQVGREKYSTSVVEKTQGCPEWCEECSFELPPGALDGLLRAQEADAGPAPWASGPNAACELVLTTMHRSLIGVDKFLGRATVALDEVFRAGRAQHTQWYRLHSKPGKKEKERGEIQVTIQFTRNNLSASMFDLSMKDKPRSPFSKLKDRVKGKKKYDLESASAILPSSALEDPELGSLGKMGKAKGFFLRNKLRKSSLTQSNTSLGSDSTLSSTSGSLVYQGPGAELLTRSPSHSSWLSTEGGRDSIQSPKLLTHKRTYSDEASQLRAAPPRALLELQGHLDGASRSSLCVNGSHVYNEEPQPPLRHRSSISGPFPPSSSLHSVPPRSSEEGSRSSDDSWGRGSHGTSSSEAVPGQEELSKQAKGASCSGEEEGARLPEGKPVQVATPMVASSEAVAAEKDRKPRMGLFHHHHHQGLSRSEQGRRGSVGEKGSPSLGASPHHSSTGEEKAKSSWFGLRESKEPTQKPSPHPVKPLTAAPVEASPDRKQPRTSLSTALSSGLERLKTVTSGGIQSVLPASQLGSSVDTKRPKDSAVLDQSAKYYHLTHDELIGLLLQRERELSQRDEHVQELESYIDRLLVRIMETSPTLLQISPGPPK
B5: NDUFS5 (protein, UniProt Q99LY9 1-106)
chain: MPFLDIQKKLGISLDRHFMFLSAEQPYKNAARCHAFEKEWIECAHGIGGTRAKKECKIEFDDFEECLLRYKTMRRMHDIKKQREKLMKEGKYTPPPHHSGREEPRP
B6: CCT2 (protein, UniProt P80314 1-535)
chain: MASLSLAPVNIFKAGADEERAETARLSSFIGAIAIGDLVKSTLGPKGMDKILLSSGRDAALMVTNDGATILKNIGVDNPAAKVLVDMSRVQDDEVGDGTTSVTVLAAELLREAESLIAKKIHPQTIISGWREATKAAREALLSSAVDHGSDEARFWQDLMNIAGTTLSSKLLTHHKDHFTKLAVEAVLRLKGSGNLEAIHVIKKLGGSLADSYLDEGFLLDKKIGVNQPKRIENAKILIANTGMDTDKIKIFGSRVRVDSTAKVAEIEHAEKEKMKEKVERILKHGINCFINRQLIYNYPEQLFGAAGVMAIEHADFAGVERLALVTGGEIASTFDHPELVKLGSCKLIEEVMIGEDKLIHFSGVALGEACTIVLRGATQQILDEAERSLHDALCVLAQTVKDPRTVYGGGCSEMLMAHAVTQLANRTPGKEAVAMESFAKALRMLPTIIADNAGYDSADLVAQLRAAHSEGHITAGLDMKEGTIGDMAVLGITESFQVKRQVLLSAAEAAEVILRVDNIIKAAPRKRVPDHHPC
B7: DNM1 (protein, UniProt P39053 1-867)
chain: MGNRGMEDLIPLVNRLQDAFSAIGQNADLDLPQIAVVGGQSAGKSSVLENFVGRDFLPRGSGIVTRRPLVLQLVNSTTEYAEFLHCKGKKFTDFEEVRLEIEAETDRVTGTNKGISPVPINLRVYSPHVLNLTLVDLPGMTKVPVGDQPPDIEFQIRDMLMQFVTKENCLILAVSPANSDLANSDALKIAKEVDPQGQRTIGVITKLDLMDEGTDARDVLENKLLPLRRGYIGVVNRSQKDIDGKKDITAALAAERKFFLSHPSYRHLADRMGTPYLQKVLNQQLTNHIRDTLPGLRNKLQSQLLSIEKEVDEYKNFRPDDPARKTKALLQMVQQFAVDFEKRIEGSGDQIDTYELSGGARINRIFHERFPFELVKMEFDEKELRREISYAIKNIHGIRTGLFTPDMAFETIVKKQVKKIREPCLKCVDMVISELISTVRQCTKKLQQYPRLREEMERIVTTHIREREGRTKEQVMLLIDIELAYMNTNHEDFIGFANAQQRSNQMNKKKTSGNQDEILVIRKGWLTINNIGIMKGGSKEYWFVLTAENLSWYKDDEEKEKKYMLSVDNLKLRDVEKGFMSSKHIFALFNTEQRNVYKDYRQLELACETQEEVDSWKASFLRAGVYPERVGDKEKASETEENGSDSFMHSMDPQLERQVETIRNLVDSYMAIVNKTVRDLMPKTIMHLMINNTKEFIFSELLANLYSCGDQNTLMEESAEQAQRRDEMLRMYHALKEALSIIGDINTTTVSTPMPPPVDDSWLQVQSVPAGRRSPTSSPTPQRRAPAVPPARPGSRGPAPGPPPAGSALGGAPPVPSRPGASPDPFGPPPQVPSRPNRAPPGVPSLGAWRLNSPQGKHENRAGKARL
B8: SLC25A11 (protein, UniProt Q9CR62 1-314)
chain: MAATASPGAGRMDGKPRTSPKSVKFLFGGLAGMGATVFVQPLDLVKNRMQLSGEGAKTREYKTSFHALTSILKTEGLKGIYTGLSAGLLRQATYTTTRLGIYTVLFERLTGADGTPPGFLLKALIGMTAGATGAFVGTPAEVALIRMTADGRLPADQRRGYKNVFNALVRIAREEGVPTLWRGCIPTMARAVVVNAAQLASYSQSKQFLLDSGYFSDNILCHFCASMISGLVTTAASMPVDIVKTRIQNMRMIDGKPEYKNGLDVLLKVVRYEGFFSLWKGFTPYYARLGPHTVLTFIFLEQMNKAYKRLFLSG

Each binder was assayed against T1, native KCC2 (K+-Cl- cotransporter KCC2) (mouse (endogenous in brain)) (UniProt Q91V14) (assay: affinity purification with mass spectrometry; anti-KCC2 antibodies (C-terminal, N-terminal KCC2b, pS940) cross-linked with DMP to GammaBind IgG beads; C12E9-solubilised whole-brain membrane fractions of P5 and P50 mice; 4 hr, 4°C; parallel IgG/IgY controls).
T1 sequence: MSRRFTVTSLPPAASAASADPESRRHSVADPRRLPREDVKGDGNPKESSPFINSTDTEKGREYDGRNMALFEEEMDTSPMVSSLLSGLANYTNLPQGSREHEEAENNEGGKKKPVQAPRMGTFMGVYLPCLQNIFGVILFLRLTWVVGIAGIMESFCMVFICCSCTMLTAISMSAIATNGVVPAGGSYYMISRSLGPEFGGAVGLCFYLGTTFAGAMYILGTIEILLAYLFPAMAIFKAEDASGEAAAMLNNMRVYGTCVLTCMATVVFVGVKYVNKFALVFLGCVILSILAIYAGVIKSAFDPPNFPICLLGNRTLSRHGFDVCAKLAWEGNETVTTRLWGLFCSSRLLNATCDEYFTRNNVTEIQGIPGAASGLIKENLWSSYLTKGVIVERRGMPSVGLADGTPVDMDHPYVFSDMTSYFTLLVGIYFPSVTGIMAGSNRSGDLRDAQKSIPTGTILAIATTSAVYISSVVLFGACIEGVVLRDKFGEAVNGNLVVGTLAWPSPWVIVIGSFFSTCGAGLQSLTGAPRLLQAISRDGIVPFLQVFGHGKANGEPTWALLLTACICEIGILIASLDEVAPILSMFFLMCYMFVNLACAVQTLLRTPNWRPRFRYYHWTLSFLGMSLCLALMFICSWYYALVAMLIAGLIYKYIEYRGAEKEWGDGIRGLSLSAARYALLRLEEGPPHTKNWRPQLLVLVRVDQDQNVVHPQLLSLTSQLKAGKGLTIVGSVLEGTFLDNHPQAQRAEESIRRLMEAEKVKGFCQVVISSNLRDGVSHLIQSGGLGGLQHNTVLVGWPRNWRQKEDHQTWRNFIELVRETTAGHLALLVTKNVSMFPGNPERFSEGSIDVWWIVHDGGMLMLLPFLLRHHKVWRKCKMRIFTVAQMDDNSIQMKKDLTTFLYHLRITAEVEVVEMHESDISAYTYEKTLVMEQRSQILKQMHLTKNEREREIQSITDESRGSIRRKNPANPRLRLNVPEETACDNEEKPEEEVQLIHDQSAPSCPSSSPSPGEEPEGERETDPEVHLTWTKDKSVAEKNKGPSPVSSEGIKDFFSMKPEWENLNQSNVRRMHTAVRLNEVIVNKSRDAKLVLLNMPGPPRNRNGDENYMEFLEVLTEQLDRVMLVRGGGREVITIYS
In the case of B1, the binding is reported as “binds”. In the case of B2, the binding is reported as “binds”. For B3, the binding was “binds”. With B4 the binding was “binds”. For B5, the binding was “binds”. With B6 the binding was “binds”. In the case of B7, the binding is reported as “binds”. For B8, the binding was “binds”.
